The target in data set [1] is Voltage-gated inwardly rectifying potassium channel KCNH2 (Homo sapiens, UniProt Q12809). Nature of the data set: Inhibition of human ERG expressed in CHO cells at -80 mV holding potential by IonWorks patch-clamp electrophysiology assay. Background: Patch clamp records ionic current or voltage across a cell membrane.
A further data set is described as follows: physchem. The following applies: buffer, pH 7.4.

The chains behind the UniProt entries cited, without tags or fusion partners. Where a name states a change or a piece, a line headed by the entry shows the natural chain unless it says otherwise.
UniProt Q12809: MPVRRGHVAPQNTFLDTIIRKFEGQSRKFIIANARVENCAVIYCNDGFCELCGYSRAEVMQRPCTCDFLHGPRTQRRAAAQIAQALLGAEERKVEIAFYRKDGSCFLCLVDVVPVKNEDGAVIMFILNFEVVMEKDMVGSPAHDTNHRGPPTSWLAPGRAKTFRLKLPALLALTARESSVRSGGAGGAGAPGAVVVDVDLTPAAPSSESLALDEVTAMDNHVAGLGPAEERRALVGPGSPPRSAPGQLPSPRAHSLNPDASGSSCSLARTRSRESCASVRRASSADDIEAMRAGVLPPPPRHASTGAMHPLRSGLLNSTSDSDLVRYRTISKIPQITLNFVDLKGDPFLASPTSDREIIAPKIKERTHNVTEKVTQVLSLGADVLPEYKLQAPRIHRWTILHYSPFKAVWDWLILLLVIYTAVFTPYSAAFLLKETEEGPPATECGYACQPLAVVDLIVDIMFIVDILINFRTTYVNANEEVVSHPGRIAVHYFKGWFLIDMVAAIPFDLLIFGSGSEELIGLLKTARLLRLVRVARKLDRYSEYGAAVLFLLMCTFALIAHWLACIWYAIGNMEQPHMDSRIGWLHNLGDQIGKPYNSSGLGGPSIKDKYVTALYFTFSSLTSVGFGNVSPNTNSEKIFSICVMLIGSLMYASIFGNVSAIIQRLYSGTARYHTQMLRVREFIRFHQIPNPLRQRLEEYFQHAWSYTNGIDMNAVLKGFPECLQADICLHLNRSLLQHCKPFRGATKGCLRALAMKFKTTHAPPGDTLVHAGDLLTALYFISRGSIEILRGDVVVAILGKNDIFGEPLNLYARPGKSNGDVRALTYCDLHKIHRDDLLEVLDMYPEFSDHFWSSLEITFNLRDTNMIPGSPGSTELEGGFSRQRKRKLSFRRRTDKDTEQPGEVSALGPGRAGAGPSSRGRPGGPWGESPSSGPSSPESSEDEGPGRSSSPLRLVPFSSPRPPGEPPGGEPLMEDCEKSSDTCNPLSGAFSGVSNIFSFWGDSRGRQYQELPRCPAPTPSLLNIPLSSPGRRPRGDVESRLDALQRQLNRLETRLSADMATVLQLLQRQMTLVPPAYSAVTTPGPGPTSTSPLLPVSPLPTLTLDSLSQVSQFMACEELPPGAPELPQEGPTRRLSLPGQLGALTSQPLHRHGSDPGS

Broadly, the IC50 is the point on the concentration scale where inhibition reaches its midpoint. In general, kinetic solubility refers to the concentration staying in solution when a stock, usually in DMSO, is diluted into the medium.

In brackets after ≈: the same amount, converted by molar mass.

As for `OCc1ccc(-c2cc3c(N[C@H](CO)c4ccccc4)ncnc3[nH]2)cc1`, the IC50 in data set [1] is greater than 25 µM. The compound further returned a kinetic solubility at 2 h in “physchem” of 37.5 µM (≈ 13.5 µg/mL).

The record behind these values is ChEMBL document CHEMBL4715760, “Balancing potency, metabolic stability and permeability in pyrrolopyrimidine-based EGFR inhibitors” (Eur J Med Chem, 2016).
